Measured values taken from the supplement of paper PMC3334620.
The full ranking holds about 33,000 sequences; the median of “E-score (-0.5 to 0.5)” is about -0.0034, and the highest 2% start at about 0.25. The list shows a part of the results.

What follows are sequences tested against T1, Yap3 (UniProt P38749) (assay: PBM E-score (8-mer binding enrichment) (E-score (-0.5 to 0.5)); higher = stronger / more preferred TF binding). Conditions: protein concentration: 100 nM; construct: GST-full length.
T1 sequence: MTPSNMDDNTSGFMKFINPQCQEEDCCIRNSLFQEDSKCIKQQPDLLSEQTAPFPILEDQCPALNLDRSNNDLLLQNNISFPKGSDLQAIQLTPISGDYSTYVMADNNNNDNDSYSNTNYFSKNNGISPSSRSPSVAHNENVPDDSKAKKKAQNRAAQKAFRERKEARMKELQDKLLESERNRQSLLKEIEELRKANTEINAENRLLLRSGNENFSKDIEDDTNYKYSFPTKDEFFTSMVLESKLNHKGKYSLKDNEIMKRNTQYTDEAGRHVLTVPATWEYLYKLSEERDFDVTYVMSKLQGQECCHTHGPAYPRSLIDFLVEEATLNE
Outline: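 Full-length yeast transcription factors or their DNA-binding domains, GST-tagged and expressed with PURExpress, were applied at about 100-200 nM to universal all-10-mer Agilent arrays. These arrays had been made double-stranded by primer extension on fresh or once-stripped slides. Detection used fluorescent anti-GST, normalisation used masliner, and E-scores for ungapped eight-base words pooled with reverse complements came from the Universal PBM Analysis Suite.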

Sequence	PBM E-score
GCCCAGGC	-0.257
ACAATTCC	0.0667
ACAACGAA	0.203
ACATTGGG	-0.0777
GTGGGATA	0.0881
ATCAGTGG	-0.0751
CTAACGCC	0.0636
TACTTAGA	0.0709
ATTCTACA	0.153
AAATTGGG	0.106
AGAGGGCC	-0.247
ACCAGGCA	-0.0335
CAAAATGC	0.0471
AGCCTGTC	-0.202
AATATGGC	0.0119
AGTGCACA	-0.0457
AGGGTTAT	0.0963
GCTATGTA	-0.097
CCATGAGA	0.057
TAACCTGA	0.0272
ATGTTTTA	0.047
AGCATCTG	-0.135
AGAGAGCC	-0.201
CCGCAGTC	-0.00761
CCTTACAG	-0.187

Sequence	PBM E-score
ACGAATCC	0.0796
CTTTTATA	-0.00621
TACAACCA	0.0559
AGCTCTCC	-0.0977
CCAAGCCC	-0.206
CAGTAACA	0.0576
GTTGCGGA	-0.0945
TTGATCAA	0.0696
ACGGACGA	0.027
CATACCGC	0.0322
CCTTTAGC	0.0123
ACCGATCC	-0.0315
AAACGTTT	0.112
CTGCACGA	-0.0162
GCCTCCAC	-0.237
AGCTCGTG	0.0246
GACACAAC	0.0342
GTCACCAA	-0.0738
AATGGGGA	0.00873
TGGGGGAA	-0.294
ACGCGCTG	-0.0575
CCACGGTA	-0.14
AATGGGCG	-0.158
AAGAGTTA	-0.0588
CGAGCCTA	-0.0627

Sequence	PBM E-score
AAACAGTA	0.132
GCATATGA	0.214
AAGCGCGC	0.14
ACGTGCTG	0.0393
GAAACCAA	0.108
CCTCGATC	0.00579
CGATACGC	0.0557
TCCGGGCA	-0.214
CCGAGTTC	0.0881
TCCTAGAA	-0.0619
ATAGGGCC	-0.174
ACCCGTCC	-0.136
CTGTGCCC	-0.163
AGTGTTCA	0.19
GAGGAGAC	-0.0755
ATATGACC	-0.054
CTTCATGA	0.168
CTACGTTC	-0.112
CTCTGTAC	0.0373
ATCAGAAT	0.0724
ACGCACCC	-0.243
AGCAATCA	0.116
GAACGCTC	-0.11
AGCCCGCC	-0.25
GAAGCCCC	-0.344

Sequence	PBM E-score
GAAATACC	0.0809
CAGCGAGC	-0.041
ATAGGAAT	0.0277
AGGCAGGG	-0.116
AGGAGAGG	-0.201
CAGCATGG	-0.0172
GCAACTAA	0.195
CGTTTCGC	0.0985
TCCCTCGA	-0.106
CGAACGCG	-0.00679
AGTAAACA	0.138
CAAGAAGC	0.0867
AGGCCTCA	-0.167
GTCGTCTA	0.00554
ACTAACGA	0.156
CGTCGTGA	-0.208
GCCCCGCC	-0.0998
CCTTCATA	0.0542
GTGCGCAA	-0.0538
ACCTTTGG	-0.232
GAGTTAGC	0.0825
AGGGGACT	-0.237
CGATAGAC	-0.0118
ACTAGTGC	-0.00191
ACACTAAC	0.116

Sequence	PBM E-score
CACACCCA	0.137
ATTTTTGG	0.118
CCGACGTA	-0.1
CCTCCTAC	-0.225
GTACTAAA	0.21
GTCTCCAA	0.0817
CCACTCAG	-0.157
CTTACAGC	-0.0539
CAACGGAG	-0.0876
CCCCGGAC	-0.277
CACCCGGA	-0.00575
GGAGGGAC	-0.284
CAGGACTG	-0.282
ATCGCCCC	-0.215
CTTACTAC	0.211
AGTGCGTC	-0.0649
CGCGTACA	-0.00198
GACCATAA	0.0774
CGTAGACC	-0.271
TAAAGGAA	0.034
AACCAAGC	0.0637
ATGCGTGA	0.138
ATGCTGTC	-0.0733
GATTGTCC	-0.00874
GCTCACGA	-0.099

Sequence	PBM E-score
CCGCCGGA	-0.162
CTATGGTA	-0.0251
ACAATATC	0.153
CGGTCGGA	-0.143
ACAGTTAC	0.115
AACCACGC	-0.142
CTATTGAC	0.0296
CGTAAGAA	-0.0102
AAGGTAGC	-0.212
CCTGCACG	-0.093
ATGCTACA	-0.121
GATAATCC	0.0355
AGTATAGC	-0.0055
AGAGCTGC	-0.19
ATAGGGCG	-0.184
AGCGTTCG	-0.0836
ACAGGTGG	-0.149
CGCCCACA	0.181
ATAAGCCA	0.0193
ACCATATG	0.122
TAGCCCCA	0.00033
AGGTCCAG	-0.0912
CAGAAGAC	0.0205
CGCGTGCC	0.0402
AAACTCGA	0.122

Sequence	PBM E-score
CTGCTCGA	-0.173
GTGAGGCA	0.0355
CTAAGGAA	0.0232
CCCCCTCC	-0.442
ACACATGG	0.0968
TCCCCTCA	0.077
GGAGAAGA	-0.148
AAGTCCCT	-0.278
CGCCGTAA	0.168
GCGTTTAC	-0.0973
CTTTGCTA	0.0895
GCTTAAAC	-0.171
CCGCATAG	0.036
CTCGCCAA	0.00948
ATTTGGTG	0.0776
ATTCCGTA	0.155
ATCACCGG	-0.0609
ACCATGTA	0.105
GTAATGAA	0.246
AAACCATT	0.0991
CATTACTC	0.221
AGGAGCAG	-0.222
ATGTGCCC	0.0279
CCTGAGTC	-0.104
GAGAACGC	-0.146

Sequence	PBM E-score
CTGAATCC	-0.0348
GGGCGGCA	0.0126
CGGTTTGC	-0.0876
AAAGATTG	0.0264
ACTTAGGG	-0.112
GTCATTTA	0.0761
CATGGTGC	-0.124
AGGAATCG	-0.00151
CCGAGCGG	-0.228
AGCCTCAG	-0.139
AAGATCCC	-0.0723
AGGCGATC	-0.164
ACCGCGAT	0.132
CCACATGC	0.112
GAGTTCAA	0.034
ATTACACA	0.255
ATTGGTGA	0.067
CGTGGTGC	-0.282
GGATGAGA	-0.0553
GCGGCCGA	-0.0777
CATCGTCC	-0.0241
CAGGAGCA	-0.018
ACACAGCA	0.0489
AGCGACTG	-0.0873
TAAATAGA	-0.0374

Taken from the results shown for reference:
Sequence	PBM E-score
ACTTAGGG	-0.112
GTCATTTA	0.0761
CATGGTGC	-0.124
AGGAATCG	-0.00151

A different layout for part of the listing above.
Sequence,PBM E-score
GGGCGGCA,0.0126
CGGTTTGC,-0.0876
AAAGATTG,0.0264
ACTTAGGG,-0.112

Later entries.

Sequence	PBM E-score
AAGACTGC	-0.0146
AGGGTTTG	0.0451
CACCGCGC	-0.0275
AAGTTTAG	0.0681
ATTCTGAA	0.105
CGGTTTGA	-0.0694
ATCACACG	0.0691
ATCACGAC	0.0721
CTGATCAG	0.116
AACAATAG	0.0572
GCACTTGA	0.0122
CGTATCAA	0.0507
AGATTCTC	-0.111
AATGCAGG	0.0911
ACATAAGA	0.185
ATTGTCGA	0.084
CACATGTC	-0.0671
ATGCGCTC	0.0474
ACACCTTA	0.0773
TGATTCCA	-0.0833
AGATGCAA	-0.0295
AACAGCAG	0.0453
AACAGACA	0.168
GACAGACC	-0.00743
CAATTCCG	0.0319

Sequence	PBM E-score
TACTGCCA	0.00049
CCCGAAGC	-0.119
GACCCAGA	-0.141
CACTTATG	0.144
GATCCTGC	-0.0874
AGAGTCCT	-0.146
ACCAGAGT	-0.152
GCGCCAAC	0.0226
ATTAAAAC	0.236
CGCGGGAG	-0.242
TCTTCTCA	0.0358
GTGGCACA	-0.127
AGGTTGGC	-0.133
ACTACGAT	0.0434
AGTGCGCA	0.0979
CAGGAGCC	-0.24
ATGCGCCG	0.00281
TAGCCCGA	0.0136
CCGATGAA	0.00817
CTTTTTTC	0.141
GCCGGCGC	-0.0852
CTGGTTCC	0.0129
AGTGTACC	-0.0543
ACCTGCTA	0.00311
GCCTGGAC	-0.205

Sequence	PBM E-score
AAGGTTTC	0.0624
ACTTATCC	0.165
AGTTGAGG	-0.119
AGACTAAG	-0.0969
ATTTCACG	0.0464
AGAGAAGG	-0.229
ATTGAATC	0.0178
CGGAACCC	-0.0816
GAGCTTGA	-0.129
AGACAAGG	-0.26
ATGGCAGG	-0.0286
GTCCGCAA	0.0604
GGAGTCAC	-0.255
GCCTTTCA	-0.0463
CGCAGCTC	-0.0466
ATGGGCGA	-0.144
ACTATGAA	0.145
CGCTAGAA	-0.125
ATGGCGGG	-0.0503
AAATACTC	0.0374
GCGTCTAA	-0.16
AGGTCGCG	-0.012
ACCTACCA	-0.0858
CGAGAGGC	-0.258
TCGTGGCA	-0.0175

Sequence	PBM E-score
GCGCTTAA	0.00056
CGACTTCC	-0.0336
CGGCAGCA	-0.0996
GCTGTATA	0.0379
ACACTGGA	0.0886
AATCAGCG	0.157
AACGCCGT	-0.105
AAATACCT	0.084
CCTATTGC	-0.0755
GATCCCAA	-0.0479
CGACCTGA	-0.0052
AAATTCTC	-0.11
GCATGGGA	-0.197
AAGGAGGA	-0.202
GAAGGTTA	0.0129
CCCTTGAG	-0.0974
GCCACTGA	-0.169
ATAACTTC	0.121
AACGTCTA	-0.122
CCATAACG	0.114
GAGCCTGA	-0.0597
GGAAAATA	0.182
ACTAACTG	0.245
GACATACA	0.256
ACCCTCGG	-0.284

Single values from the list.
For PBM E-score, GGAAAATA has 0.182
For PBM E-score, AACGCCGT has -0.105
For PBM E-score, CGACTTCC has -0.0336

More records follow.

Sequence	PBM E-score
CATACTGA	0.136
CATTTGTC	0.0921
GTAGAGGA	-0.195
GCCAGAGA	-0.14
CATGAGGG	-0.0791
AGGCCAAA	-0.0322
CAAGGAAC	0.078
CTGTCGAA	-0.161
CGTTTGCA	0.0897
CAATGCTA	-0.00529
CCGCTCGC	-0.178
AGCTAACG	-0.0112
AGTGATAA	0.107
AAAGCAAG	0.206
AAGATTCG	0.167
GCTTAAGA	-0.0272
ACCCATAG	-0.286
TCAGCCGA	-0.134
AAGACCTC	-0.217
AAGCGCTG	-0.0246
CTCAAGGA	0.0643
ATATAAGA	0.346
AAATAAGA	0.164
ACCCGTTA	-0.0249
GCAGGACA	-0.0634

Sequence	PBM E-score
CCTCGCTA	-0.143
CTGTTACA	0.0405
GAAGATCC	-0.191
CCCGCGAA	0.0694
ATCGTAAG	0.137
CGTGCATC	-0.223
AGTAAAAC	-0.0237
ACTGCCGC	0.00407
CATAGAAC	0.0395
GTGCTCTA	-0.0224
AGATAACA	0.135
CAGCTAGA	-0.127
AACGTTTG	-0.00788
CCCATGAA	-0.0988
ATGCAGAC	-0.0609
TCAGGCAA	0.00783
AACAAATG	0.161
CCTTTTAC	0.0902
GGACATAC	0.00756
